Results as given in the supplement of paper PMC10032668.
This is one part of the list. Only hits are listed; about a third recur on repeated control peptides.

Sequences of proteins named here, by UniProt entry; tags and fusion partners are left off.
DMAP1, Q9NPF5, UniProt Q9NPF5, whole entry: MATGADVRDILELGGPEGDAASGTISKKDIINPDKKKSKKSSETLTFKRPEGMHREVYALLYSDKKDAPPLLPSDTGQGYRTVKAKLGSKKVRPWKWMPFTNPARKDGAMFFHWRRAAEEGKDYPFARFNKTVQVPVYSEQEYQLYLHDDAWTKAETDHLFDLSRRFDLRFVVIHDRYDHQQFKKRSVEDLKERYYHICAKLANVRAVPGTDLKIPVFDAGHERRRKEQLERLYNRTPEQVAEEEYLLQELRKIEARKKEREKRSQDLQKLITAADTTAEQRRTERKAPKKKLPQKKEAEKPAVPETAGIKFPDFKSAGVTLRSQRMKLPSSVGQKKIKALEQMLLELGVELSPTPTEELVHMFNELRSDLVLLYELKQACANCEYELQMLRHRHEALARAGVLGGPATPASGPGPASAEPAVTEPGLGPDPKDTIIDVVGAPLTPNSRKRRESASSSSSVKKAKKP
EIF1, P41567, UniProt P41567, whole entry: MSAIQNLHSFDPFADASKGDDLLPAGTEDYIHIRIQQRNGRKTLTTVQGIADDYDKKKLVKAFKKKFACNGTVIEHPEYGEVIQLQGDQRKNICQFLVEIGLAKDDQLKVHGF
EIF2S2, P20042, UniProt P20042, whole entry: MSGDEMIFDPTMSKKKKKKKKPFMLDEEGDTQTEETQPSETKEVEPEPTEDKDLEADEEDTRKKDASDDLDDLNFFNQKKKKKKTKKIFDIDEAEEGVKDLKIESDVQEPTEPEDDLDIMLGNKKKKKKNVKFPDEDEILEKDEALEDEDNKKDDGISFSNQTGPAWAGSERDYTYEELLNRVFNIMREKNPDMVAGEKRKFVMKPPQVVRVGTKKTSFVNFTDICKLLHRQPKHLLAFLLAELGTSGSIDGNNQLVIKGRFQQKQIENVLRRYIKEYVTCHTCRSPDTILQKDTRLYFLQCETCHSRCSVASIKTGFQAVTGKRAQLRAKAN
EP400, Q96L91, UniProt Q96L91, whole entry: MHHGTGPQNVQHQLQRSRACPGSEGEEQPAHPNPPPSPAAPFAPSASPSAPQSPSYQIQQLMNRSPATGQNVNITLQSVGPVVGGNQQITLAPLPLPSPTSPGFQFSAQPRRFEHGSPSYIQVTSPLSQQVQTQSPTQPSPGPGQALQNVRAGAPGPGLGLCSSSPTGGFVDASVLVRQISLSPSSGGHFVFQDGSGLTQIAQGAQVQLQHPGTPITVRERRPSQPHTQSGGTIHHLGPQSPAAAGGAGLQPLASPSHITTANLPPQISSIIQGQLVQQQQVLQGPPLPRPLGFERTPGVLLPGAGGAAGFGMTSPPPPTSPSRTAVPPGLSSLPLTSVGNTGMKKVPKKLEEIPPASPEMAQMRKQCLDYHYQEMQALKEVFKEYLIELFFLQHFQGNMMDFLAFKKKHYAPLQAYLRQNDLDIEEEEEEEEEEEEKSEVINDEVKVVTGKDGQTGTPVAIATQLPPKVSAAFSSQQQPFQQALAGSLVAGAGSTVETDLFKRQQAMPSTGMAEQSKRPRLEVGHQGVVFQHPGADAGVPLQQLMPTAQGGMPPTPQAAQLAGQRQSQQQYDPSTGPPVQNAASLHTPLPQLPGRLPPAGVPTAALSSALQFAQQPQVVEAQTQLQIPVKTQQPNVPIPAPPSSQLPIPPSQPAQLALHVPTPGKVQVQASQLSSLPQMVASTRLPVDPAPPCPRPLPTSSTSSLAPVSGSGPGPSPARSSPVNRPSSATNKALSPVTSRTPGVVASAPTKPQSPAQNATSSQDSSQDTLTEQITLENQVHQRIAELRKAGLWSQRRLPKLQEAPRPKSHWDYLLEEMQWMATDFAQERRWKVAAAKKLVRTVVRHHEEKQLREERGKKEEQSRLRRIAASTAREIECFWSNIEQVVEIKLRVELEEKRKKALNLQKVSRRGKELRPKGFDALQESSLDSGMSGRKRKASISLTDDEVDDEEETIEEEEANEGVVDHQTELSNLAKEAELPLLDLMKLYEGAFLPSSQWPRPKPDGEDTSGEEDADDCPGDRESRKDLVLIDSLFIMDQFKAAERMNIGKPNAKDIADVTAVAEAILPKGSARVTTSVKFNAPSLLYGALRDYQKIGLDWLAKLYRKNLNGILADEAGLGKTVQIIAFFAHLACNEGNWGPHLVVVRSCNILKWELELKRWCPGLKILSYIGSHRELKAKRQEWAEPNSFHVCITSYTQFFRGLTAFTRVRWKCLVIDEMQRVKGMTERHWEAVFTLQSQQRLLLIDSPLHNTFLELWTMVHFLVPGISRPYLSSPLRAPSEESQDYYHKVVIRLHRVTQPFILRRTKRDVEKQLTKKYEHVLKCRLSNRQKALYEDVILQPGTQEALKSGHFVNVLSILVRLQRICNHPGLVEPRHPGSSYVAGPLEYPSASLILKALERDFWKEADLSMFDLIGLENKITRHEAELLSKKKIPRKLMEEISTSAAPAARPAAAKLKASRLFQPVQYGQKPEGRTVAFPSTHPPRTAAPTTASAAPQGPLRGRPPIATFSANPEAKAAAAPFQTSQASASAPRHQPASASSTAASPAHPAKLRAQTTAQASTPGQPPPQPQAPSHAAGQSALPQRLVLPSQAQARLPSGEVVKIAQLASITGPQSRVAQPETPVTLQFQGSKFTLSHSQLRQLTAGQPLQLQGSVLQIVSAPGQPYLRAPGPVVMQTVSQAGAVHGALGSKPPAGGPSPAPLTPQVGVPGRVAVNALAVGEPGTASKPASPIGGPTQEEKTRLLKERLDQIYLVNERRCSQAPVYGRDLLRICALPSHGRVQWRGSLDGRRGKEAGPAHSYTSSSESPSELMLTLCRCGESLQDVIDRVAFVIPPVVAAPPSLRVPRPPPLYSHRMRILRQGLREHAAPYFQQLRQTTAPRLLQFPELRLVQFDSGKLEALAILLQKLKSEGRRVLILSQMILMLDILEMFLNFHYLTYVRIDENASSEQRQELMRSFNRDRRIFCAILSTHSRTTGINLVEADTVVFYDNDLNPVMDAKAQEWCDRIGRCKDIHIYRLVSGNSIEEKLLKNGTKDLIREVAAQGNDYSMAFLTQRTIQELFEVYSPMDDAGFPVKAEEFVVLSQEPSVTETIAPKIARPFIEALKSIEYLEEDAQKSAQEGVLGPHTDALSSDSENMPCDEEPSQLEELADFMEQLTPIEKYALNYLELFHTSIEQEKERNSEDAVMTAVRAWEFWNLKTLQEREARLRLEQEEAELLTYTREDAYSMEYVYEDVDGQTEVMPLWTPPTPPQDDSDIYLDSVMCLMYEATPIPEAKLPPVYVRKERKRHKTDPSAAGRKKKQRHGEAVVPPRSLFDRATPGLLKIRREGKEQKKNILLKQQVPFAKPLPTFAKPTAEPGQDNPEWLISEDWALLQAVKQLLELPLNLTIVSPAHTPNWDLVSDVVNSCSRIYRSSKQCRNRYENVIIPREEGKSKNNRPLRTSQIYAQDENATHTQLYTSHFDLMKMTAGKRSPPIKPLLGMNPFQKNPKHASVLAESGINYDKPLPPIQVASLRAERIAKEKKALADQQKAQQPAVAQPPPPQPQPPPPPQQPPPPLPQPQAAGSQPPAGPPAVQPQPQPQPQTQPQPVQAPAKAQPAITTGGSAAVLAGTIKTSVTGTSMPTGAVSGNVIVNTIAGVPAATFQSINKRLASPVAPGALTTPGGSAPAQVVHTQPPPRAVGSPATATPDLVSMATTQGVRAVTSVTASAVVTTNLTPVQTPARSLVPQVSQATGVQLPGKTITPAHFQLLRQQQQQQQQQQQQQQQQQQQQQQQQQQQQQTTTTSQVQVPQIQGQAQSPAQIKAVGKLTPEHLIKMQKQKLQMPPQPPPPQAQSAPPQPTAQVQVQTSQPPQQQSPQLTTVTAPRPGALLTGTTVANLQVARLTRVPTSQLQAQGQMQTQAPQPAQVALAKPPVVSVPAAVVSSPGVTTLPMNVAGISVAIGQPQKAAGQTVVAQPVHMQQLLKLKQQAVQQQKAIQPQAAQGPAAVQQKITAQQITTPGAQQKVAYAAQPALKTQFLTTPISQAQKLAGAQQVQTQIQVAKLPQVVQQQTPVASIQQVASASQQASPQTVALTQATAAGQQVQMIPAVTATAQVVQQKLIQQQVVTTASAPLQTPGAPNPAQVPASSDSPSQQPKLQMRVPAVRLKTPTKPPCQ
GABARAP, O95166, UniProt O95166, whole entry: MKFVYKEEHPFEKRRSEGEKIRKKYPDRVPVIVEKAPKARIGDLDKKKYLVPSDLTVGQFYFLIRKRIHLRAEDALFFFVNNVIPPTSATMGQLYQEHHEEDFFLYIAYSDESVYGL
RNF40, O75150, UniProt O75150, whole entry: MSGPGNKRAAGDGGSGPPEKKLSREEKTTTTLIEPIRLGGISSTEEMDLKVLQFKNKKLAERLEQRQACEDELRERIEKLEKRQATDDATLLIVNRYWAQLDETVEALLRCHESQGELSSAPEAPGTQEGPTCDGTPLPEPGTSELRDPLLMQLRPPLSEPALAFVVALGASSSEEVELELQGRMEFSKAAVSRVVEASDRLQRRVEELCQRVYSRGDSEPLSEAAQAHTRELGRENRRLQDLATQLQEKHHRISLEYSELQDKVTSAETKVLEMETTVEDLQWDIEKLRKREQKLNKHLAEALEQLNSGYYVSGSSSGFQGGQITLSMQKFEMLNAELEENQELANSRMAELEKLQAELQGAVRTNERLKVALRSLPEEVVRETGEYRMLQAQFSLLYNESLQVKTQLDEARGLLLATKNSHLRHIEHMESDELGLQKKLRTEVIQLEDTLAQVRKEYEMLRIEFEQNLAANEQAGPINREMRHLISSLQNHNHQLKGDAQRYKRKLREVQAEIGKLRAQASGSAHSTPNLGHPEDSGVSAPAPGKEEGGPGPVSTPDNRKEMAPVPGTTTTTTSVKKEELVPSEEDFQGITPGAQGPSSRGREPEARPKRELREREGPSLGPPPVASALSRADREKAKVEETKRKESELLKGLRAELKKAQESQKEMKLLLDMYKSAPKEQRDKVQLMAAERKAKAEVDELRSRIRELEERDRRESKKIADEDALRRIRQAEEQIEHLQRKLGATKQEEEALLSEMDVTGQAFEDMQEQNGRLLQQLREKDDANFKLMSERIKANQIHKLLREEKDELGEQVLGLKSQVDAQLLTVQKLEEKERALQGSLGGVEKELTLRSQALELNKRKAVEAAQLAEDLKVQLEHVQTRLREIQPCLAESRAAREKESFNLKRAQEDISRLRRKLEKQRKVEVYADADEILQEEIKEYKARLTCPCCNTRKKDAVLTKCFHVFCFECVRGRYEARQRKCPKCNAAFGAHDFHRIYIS
SNRPB2, P08579, UniProt P08579, whole entry: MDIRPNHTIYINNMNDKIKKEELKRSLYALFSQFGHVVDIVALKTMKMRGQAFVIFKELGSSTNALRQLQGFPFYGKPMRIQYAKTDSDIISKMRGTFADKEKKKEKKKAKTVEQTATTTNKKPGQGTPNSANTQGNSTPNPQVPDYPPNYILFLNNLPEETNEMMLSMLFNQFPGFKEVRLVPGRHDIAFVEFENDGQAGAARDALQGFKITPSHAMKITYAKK
UFM1, P61960, UniProt P61960, whole entry: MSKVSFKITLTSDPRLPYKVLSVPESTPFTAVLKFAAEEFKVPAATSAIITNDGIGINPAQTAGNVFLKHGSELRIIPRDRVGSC
PPP2R5D, Q14738, UniProt Q14738, whole entry: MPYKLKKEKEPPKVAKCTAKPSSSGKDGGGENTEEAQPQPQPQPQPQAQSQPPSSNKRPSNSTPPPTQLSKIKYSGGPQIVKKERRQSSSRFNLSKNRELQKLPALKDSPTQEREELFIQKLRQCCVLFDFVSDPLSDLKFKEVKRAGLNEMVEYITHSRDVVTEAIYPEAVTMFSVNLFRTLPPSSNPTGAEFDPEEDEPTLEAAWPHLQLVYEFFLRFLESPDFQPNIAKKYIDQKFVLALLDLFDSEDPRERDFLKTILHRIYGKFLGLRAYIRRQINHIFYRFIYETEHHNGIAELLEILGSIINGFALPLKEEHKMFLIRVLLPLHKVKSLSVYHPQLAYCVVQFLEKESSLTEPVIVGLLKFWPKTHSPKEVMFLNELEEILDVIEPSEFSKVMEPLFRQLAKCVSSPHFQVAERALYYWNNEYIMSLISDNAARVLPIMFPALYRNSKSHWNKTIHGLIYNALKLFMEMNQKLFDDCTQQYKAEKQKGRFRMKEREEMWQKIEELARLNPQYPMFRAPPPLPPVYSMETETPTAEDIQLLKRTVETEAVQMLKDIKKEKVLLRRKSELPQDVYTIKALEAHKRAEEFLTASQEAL
SNRPE, P62304, UniProt P62304, whole entry: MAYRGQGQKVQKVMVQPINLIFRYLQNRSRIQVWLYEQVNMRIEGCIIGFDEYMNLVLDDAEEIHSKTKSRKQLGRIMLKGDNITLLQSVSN

Experiments:
Assay in all cases: PRISMA enrichment of interactor (LFQ) in peptide spot vs all other peptide spots (log2 fold change); higher = stronger / more specific binding of the interactor to the peptide
[1] = molecular target: ACAT2, Q9BWD1
Description: (§1)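 PRISMA: 15-aa overlapping tiles (offset 8 aa) of 60 microproteins, plus SOS1/GLUT1 control peptides, were spot-synthesized on cellulose membranes in triplicate. Membranes were incubated with benzonase-treated HEK293T lysate, and bound proteins were identified by LC-MS/MS with LFQ. Enrichment is the log2 fold change of each protein in one spot versus all other spots. Only interactors passing the significance cutoff are listed.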

[2] = molecular target: C19orf53, Q9UNZ5
Description: as §1

[3] = molecular target: CDCA5, Q96FF9
Description: as §1

[4] = molecular target: CHTOP, Q9Y3Y2
Description: as §1

[5] = molecular target: DDX5, P17844
Description: as §1

[6] = molecular target: DMAP1, Q9NPF5
Description: as §1

[7] = molecular target: EIF1, P41567
Description: as §1

[8] = molecular target: EIF2S2, P20042
Description: as §1

[9] = molecular target: EP400, Q96L91
Description: as §1

[10] = molecular target: G3BP2, Q9UN86
Description: as §1

[11] = molecular target: GABARAP, O95166
Description: as §1

[12] = molecular target: GABARAPL2, P60520
Description: as §1

[13] = molecular target: GOLIM4, O00461
Description: as §1

[14] = molecular target: HMGCL, P35914
Description: as §1

[15] = molecular target: ITCH, Q96J02
Description: as §1

[16] = molecular target: MRPL27, Q9P0M9
Description: as §1

[17] = molecular target: NOL7, Q9UMY1
Description: as §1

[18] = molecular target: PAFAH1B3, Q15102
Description: as §1

[19] = molecular target: PUS1, Q9Y606
Description: as §1

[20] = molecular target: RNF40, O75150
Description: as §1

[21] = molecular target: SNRPB2, P08579
Description: as §1

[22] = molecular target: UFM1, P61960
Description: as §1

[23] = molecular target: ZMAT2, Q96NC0
Description: as §1

[24] = molecular target: ACIN1, Q9UKV3
Description: as §1

[25] = molecular target: APRT, P07741
Description: as §1

[26] = molecular target: CIAO1, O76071
Description: as §1

[27] = substrate: CNP, P09543
Description: as §1

[28] = molecular target: COPS3, Q9UNS2
Description: as §1

[29] = molecular target: MDC1, Q14676
Description: as §1

[30] = molecular target: MED23, Q9ULK4
Description: as §1

[31] = molecular target: MKI67, P46013
Description: as §1

[32] = molecular target: MRFAP1, Q9Y605
Description: as §1

[33] = molecular target: MRPS6, P82932
Description: as §1

[34] = molecular target: ORC5, O43913
Description: as §1

[35] = molecular target: PPP2R5D, Q14738
Description: as §1

[36] = molecular target: SNRPE, P62304
Description: as §1

[37] = molecular target: TWNK, Q96RR1
Description: as §1

[38] = molecular target: UTP4, Q969X6
Description: as §1

Row | Binder | PRISMA enrichment of interactor (log2) [1] | PRISMA enrichment of interactor (log2) [2] | PRISMA enrichment of interactor (log2) [3] | PRISMA enrichment of interactor (log2) [4] | PRISMA enrichment of interactor (log2) [5] | PRISMA enrichment of interactor (log2) [6] | PRISMA enrichment of interactor (log2) [7] | PRISMA enrichment of interactor (log2) [8] | PRISMA enrichment of interactor (log2) [9] | PRISMA enrichment of interactor (log2) [10] | PRISMA enrichment of interactor (log2) [11] | PRISMA enrichment of interactor (log2) [12] | PRISMA enrichment of interactor (log2) [13] | PRISMA enrichment of interactor (log2) [14] | PRISMA enrichment of interactor (log2) [15] | PRISMA enrichment of interactor (log2) [16] | PRISMA enrichment of interactor (log2) [17] | PRISMA enrichment of interactor (log2) [18] | PRISMA enrichment of interactor (log2) [19] | PRISMA enrichment of interactor (log2) [20] | PRISMA enrichment of interactor (log2) [21] | PRISMA enrichment of interactor (log2) [22] | PRISMA enrichment of interactor (log2) [23] | PRISMA enrichment of interactor (log2) [24] | PRISMA enrichment of interactor (log2) [25] | PRISMA enrichment of interactor (log2) [26] | PRISMA enrichment of interactor (log2) [27] | PRISMA enrichment of interactor (log2) [28] | PRISMA enrichment of interactor (log2) [29] | PRISMA enrichment of interactor (log2) [30] | PRISMA enrichment of interactor (log2) [31] | PRISMA enrichment of interactor (log2) [32] | PRISMA enrichment of interactor (log2) [33] | PRISMA enrichment of interactor (log2) [34] | PRISMA enrichment of interactor (log2) [35] | PRISMA enrichment of interactor (log2) [36] | PRISMA enrichment of interactor (log2) [37] | PRISMA enrichment of interactor (log2) [38]
1 | VFSEPDGFTVIFSGL [PVT1] | 4.15 | 7.62 | 4.61 | 6.05 | 5.35 | 4.66 | 6.29 | 5.7 | 4.54 | 5.53 | 5.76 | 6.38 | 4.76 | 4.66 | 4.56 | 7.29 | 4.92 | 5.04 | 5.21 | 4.57 | 5.5 | 5.46 | 4.71 |  |  |  |  |  |  |  |  |  |  |  |  |  |  | 
2 | EFRGTAENVTGLNTI [LINC01560] |  |  |  |  |  |  |  |  |  |  |  |  |  |  |  |  |  |  |  |  |  |  |  | 5.74 | 4.43 | 4.49 | 6.8 | 4.76 | 5.44 | 4.88 | 4.87 | 3.98 | 5.48 | 4.09 | 5.14 | 8.41 | 6.2 | 5.1
